The text below walks through data of PMC11551761.

Amino acid sequences for entries named in this document (tags omitted). Residues count along the entry.
UniProt P18858, whole entry: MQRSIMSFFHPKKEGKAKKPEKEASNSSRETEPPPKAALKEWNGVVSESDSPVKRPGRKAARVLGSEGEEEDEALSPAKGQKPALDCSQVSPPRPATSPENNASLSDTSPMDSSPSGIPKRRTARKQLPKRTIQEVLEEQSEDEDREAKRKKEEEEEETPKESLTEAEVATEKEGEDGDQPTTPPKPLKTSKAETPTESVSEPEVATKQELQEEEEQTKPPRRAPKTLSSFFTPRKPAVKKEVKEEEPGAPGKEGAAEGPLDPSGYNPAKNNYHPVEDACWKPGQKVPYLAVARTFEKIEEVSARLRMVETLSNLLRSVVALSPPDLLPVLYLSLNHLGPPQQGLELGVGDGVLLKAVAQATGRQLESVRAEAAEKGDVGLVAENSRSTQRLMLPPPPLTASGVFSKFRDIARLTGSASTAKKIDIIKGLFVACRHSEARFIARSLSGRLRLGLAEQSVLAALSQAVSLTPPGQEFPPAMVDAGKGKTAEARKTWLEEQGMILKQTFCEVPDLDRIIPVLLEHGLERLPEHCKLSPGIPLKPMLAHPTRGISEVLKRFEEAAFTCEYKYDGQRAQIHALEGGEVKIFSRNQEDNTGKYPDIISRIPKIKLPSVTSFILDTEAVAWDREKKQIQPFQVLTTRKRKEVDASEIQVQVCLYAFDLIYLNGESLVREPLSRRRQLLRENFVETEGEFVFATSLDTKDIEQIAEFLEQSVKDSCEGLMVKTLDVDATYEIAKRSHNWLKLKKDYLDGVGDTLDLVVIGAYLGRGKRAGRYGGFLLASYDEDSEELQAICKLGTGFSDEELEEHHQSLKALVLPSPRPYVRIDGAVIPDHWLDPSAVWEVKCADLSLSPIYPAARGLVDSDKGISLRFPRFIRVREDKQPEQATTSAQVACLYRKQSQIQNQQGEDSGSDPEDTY
UniProt P18858, 261-919: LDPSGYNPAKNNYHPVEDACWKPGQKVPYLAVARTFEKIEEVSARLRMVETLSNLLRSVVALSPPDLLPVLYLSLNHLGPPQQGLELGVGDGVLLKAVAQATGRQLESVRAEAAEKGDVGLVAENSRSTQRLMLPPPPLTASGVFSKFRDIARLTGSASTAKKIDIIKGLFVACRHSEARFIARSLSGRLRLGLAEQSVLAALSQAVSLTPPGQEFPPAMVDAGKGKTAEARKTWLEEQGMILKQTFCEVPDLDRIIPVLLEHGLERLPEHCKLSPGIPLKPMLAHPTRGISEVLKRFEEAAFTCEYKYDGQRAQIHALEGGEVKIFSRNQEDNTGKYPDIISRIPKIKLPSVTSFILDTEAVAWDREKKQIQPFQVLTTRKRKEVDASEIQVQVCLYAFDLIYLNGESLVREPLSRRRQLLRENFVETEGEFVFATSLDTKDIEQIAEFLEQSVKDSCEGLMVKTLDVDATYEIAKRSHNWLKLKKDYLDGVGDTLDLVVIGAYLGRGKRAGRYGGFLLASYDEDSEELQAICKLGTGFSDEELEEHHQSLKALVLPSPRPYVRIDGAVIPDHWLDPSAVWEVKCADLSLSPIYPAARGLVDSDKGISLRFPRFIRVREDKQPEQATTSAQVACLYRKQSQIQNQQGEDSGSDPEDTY

One series has as its target LIG1 full-length (human) (UniProt P18858). The series can be described thus: single-molecule TIRF. Conditions: 1 mM HEPES pH 7.4, 20 mM NaCl, 0.02% BSA, 0.002% Tween 20 (BLI, C-Trap, TIRF; TIRF plus oxygen scavenger and 10 mM Trolox), recombinant protein, residues 1-919.
Series [1] concerns the target LIG1 C-terminal del1-260 (human) (UniProt P18858). As to the kind of experiment: single-molecule TIRF. The following applies: no Mg2+, bound lifetimes 0.8 s (80%), 3.5 s (20%), unbound 98 s; 5'-phosphate on Down; 3'-OH at nick; 1 mM HEPES pH 7.4, 20 mM NaCl, 0.02% BSA, 0.002% Tween 20 (BLI, C-Trap, TIRF; TIRF plus oxygen scavenger and 10 mM Trolox); recombinant protein; residues 261-919; label: 5'-biotin on Up, 3'-AF488 on Down.

A weaker result is weaker than the reference pair of the same experiment. For some of these results: The exact form of at least one protein or probe is not confirmed.

As for “CATGGGCGGCATGAACCA / GAGGCCCATCCTCACC / GGTGAGGATGGGCCTCTGGTTCATGCCGCCCATG [34-mer single-nick DNA (Up-OH + Down / Template T)]”, the binding result with LIG1 full-length (human) (10 mM Mg2+ (nick sealing expected), bound lifetimes 0.3 s (80%), 2.9 s (20%), 5'-phosphate on Down, 3'-OH at nick, label: 5'-biotin on Up, 3'-AF488 on Down) is given as “binds more weakly”; in series [1], “binds more weakly”.

For “CATGGGCGGCATGAACCAGAGGCCCATCCTCACC (double strand) [34-mer no-nick DNA (Top / Template T)]”, the binding result in the series with LIG1 full-length (human) (no Mg2+, bound lifetimes 0.26 s (80%), 2.8 s (20%), label: 5'-biotin and 3'-AF488 on Top) is given as “binds more weakly”.

As to “CATGGGCGGCATGAACCC / GAGGCCCATCCTCACC / GGTGAGGATGGGCCTCGGGTTCATGCCGCCCATG [34-mer single-nick DNA, 3'-ddC (Up-ddC + Down / Template G)]”, in the series with LIG1 full-length (human) (similar to unmodified nick DNA, 3'-ddC (X, last nt of Up), non-ligatable, 5'-phosphate on Down, label: 5'-biotin on Up, 3'-AF488 on Down), the binding result is listed as “binds”.
